Experimental data reported in patent US10934523B2, “Method for culture of stem cell” (RIKEN, priority 2008, dated 2021).
Some entries share one result that the patent states for a list of compounds.

B1: Nodal: Nodal signal promoter (protein, UniProt Q96S42 238-347, looked up)
Nodal homolog: HHLPDRSQLCRKVKFQVDFNLIGWGSWIIYPKQYNAYRCEGECPNPVGEEFHPTNHAYIQSLLKRYQPHRVPSTCCAPVKTKPLSMLYVDNGRVLLDHHKDMIVEECGCL
B2: Wnt3a: protein belonging to the Wnt family, Wnt signal promoter (protein, UniProt P56704 19-352, looked up)
Protein Wnt-3a: SYPIWWSLAVGPQYSSLGSQPILCASIPGLVPKQLRFCRNYVEIMPSVAEGIKIGIQECQHQFRGRRWNCTTVHDSLAIFGPVLDKATRESAFVHAIASAGVAFAVTRSCAEGTAAICGCSSRHQGSPGKGWKWGGCSEDIEFGGMVSREFADARENRPDARSAMNRHNNEAGRQAIASHMHLKCKCHGLSGSCEVKTCWWSQPDFRAIGDFLKDKYDSASEMVVEKHRESRGWVETLRPRYTYFKVPTERDLVYYEASPNFCEPNPETGSFGTRDRTCNVSSHGIDGCDLLCCGRGHNARAERRREKCRCVFHWCCYVSCQECTRVYDVHTCK
B3: BMP7: protein belonging to the BMP family, BMP signal promoter (protein, UniProt P18075 293-431, looked up)
Bone morphogenetic protein 7: STGSKQRSQNRSKTPKNQEALRMANVAENSSSDQRQACKKHELYVSFRDLGWQDWIIAPEGYAAYYCEGECAFPLNSYMNATNHAIVQTLVHFINPETVPKPCCAPTQLNAISVLYFDDSSNVILKKYRNMVVRACGCH

tested on: Rx-GFP ES cells; assay: Differentiation into hypothalamic progenitor cells by SFEBq/gfCDM, percentage of Rx-GFP+ cells by FACS on day 7; type: cell-based, mouse; details: added day 3 to day 7: Nodal 1 μg/ml, Wnt3a 200 ng/ml, Fgf 8b 250 ng/ml, BMP7 500 ng/ml, retinoic acid 0.2 μM, lipid-rich albumin 1x; control 50-70%
Protocol: Differentiation culture was performed under the same culturing conditions as Example 13 for 7 days. For analyzing the differentiated cells, an antibody against the Rx protein, which is a hypothalamic and retinal progenitor cell marker, was used. In hypothalamic progenitor cells, in addition to Rx, a protein called nestin is expressed, whereas in retinal progenitor cells, only Rx is expressed but nestin is not expressed, so that hypothalamic progenitor cells were identified by a fluorescent immunostaining method with the co-expression of Rx and nestin as an index.
Furthermore, EB5 cells wherein GFP was knocked in at the Rx gene locus (hereinafter, Rx-GFP ES cells) were prepared, and the expression of Rx-GFP was also analyzed by FACS.
Differentiation culture was performed under the same culturing conditions as Example 14 for 7 days, and the influence of the addition of insulin to the medium on the differentiation of hypothalamic progenitor cells from ES cells was analyzed by FACS using Rx-GFP ES cells. The intracellular signal transduction of insulin is involved by roughly two pathways (MAPK pathway and PI3K-Akt pathway). […] LY294002, Akt inhibitor VIII, PD98059 or DMSO (vehicle control) was added on day 2 of cultivation.

Molecule | percentage of Rx-GFP
CC1=C(/C=C/C(C)=C/C=C/C(C)=C/C(=O)O)C(C)(C)CCC1 [retinoic acid] | less than 10%
B1 | less than 10%
B2 | less than 10%
B3 | less than 10%
